No constants are given. Whether binding was seen depends on the method and setting. Some entries that bind do so weakly or less than the wild type.
T1: cyclic RGDFC peptide
T1 sequence (peptide, cyclic; the cysteine thiol is used to functionalise the gold nanostars): RGDFC

The chains behind the UniProt entries cited, without tags or fusion partners. Where a name states a change or a piece, a line headed by the entry shows the natural chain unless it says otherwise.
UniProt P06756: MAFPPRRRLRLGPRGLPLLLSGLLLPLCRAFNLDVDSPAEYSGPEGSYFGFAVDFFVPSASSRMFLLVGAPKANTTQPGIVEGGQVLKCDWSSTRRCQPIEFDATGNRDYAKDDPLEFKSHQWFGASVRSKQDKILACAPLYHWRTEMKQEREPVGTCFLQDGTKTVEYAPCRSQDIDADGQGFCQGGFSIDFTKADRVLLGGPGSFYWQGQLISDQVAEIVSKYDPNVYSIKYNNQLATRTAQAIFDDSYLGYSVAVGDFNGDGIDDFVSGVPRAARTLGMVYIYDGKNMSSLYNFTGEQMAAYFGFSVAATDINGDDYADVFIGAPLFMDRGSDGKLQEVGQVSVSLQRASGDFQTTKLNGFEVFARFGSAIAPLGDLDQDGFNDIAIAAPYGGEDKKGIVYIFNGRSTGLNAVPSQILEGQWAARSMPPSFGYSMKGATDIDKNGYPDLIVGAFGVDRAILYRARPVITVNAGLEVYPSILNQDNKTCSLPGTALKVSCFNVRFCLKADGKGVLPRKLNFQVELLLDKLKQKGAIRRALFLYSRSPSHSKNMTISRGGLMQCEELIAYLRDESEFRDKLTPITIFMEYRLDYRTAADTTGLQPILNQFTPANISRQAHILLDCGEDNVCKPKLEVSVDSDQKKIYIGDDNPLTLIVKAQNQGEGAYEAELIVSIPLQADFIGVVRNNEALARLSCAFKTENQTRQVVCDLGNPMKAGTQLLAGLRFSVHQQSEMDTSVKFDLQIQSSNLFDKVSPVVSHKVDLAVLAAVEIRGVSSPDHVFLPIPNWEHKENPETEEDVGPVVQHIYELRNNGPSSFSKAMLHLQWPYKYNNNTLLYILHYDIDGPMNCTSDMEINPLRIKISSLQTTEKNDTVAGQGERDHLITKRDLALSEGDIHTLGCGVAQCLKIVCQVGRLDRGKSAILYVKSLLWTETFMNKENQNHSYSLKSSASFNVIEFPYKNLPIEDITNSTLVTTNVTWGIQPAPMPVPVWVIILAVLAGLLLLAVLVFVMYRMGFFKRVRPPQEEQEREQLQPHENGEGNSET
UniProt P05106: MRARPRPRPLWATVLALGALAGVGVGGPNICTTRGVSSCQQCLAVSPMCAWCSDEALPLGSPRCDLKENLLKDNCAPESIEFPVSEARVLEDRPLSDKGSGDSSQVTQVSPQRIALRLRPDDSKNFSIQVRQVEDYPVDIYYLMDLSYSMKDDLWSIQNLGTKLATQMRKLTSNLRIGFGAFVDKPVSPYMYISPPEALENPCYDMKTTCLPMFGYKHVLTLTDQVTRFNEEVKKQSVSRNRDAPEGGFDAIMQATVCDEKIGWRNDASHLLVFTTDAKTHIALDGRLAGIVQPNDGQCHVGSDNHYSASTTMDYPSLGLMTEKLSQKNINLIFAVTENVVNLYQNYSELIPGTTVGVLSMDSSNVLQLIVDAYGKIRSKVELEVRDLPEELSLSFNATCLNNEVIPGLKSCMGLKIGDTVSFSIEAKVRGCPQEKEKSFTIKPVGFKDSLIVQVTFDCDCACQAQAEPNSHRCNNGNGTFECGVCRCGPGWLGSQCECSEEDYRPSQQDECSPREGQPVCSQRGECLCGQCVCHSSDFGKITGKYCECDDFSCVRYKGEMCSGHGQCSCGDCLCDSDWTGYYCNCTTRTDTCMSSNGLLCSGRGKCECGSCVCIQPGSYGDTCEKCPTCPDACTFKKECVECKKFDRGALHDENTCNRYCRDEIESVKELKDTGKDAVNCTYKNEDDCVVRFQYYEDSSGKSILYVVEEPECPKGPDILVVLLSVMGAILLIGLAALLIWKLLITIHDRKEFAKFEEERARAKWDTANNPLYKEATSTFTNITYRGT

B1: cyclic RGDFC peptide (peptide)
peptide: RGDFC
modifications: cyclic; the cysteine thiol is used to functionalise the gold nanostars

Tests used:
cyclic RGDFC peptide [1] = biological target: T1, cyclic RGDFC peptide; experiment: surface enhanced Raman scattering (SERS); cyclic RGDFC on gold nanostars incubated with purified αvβ3 integrin for 2 hours; spectra analysed by multivariate curve resolution; both purified
cyclic RGDFC peptide [2] = biological target: T1, cyclic RGDFC peptide; experiment: surface enhanced Raman scattering (SERS); cyclic RGDFC on gold nanostars incubated with FBS supplemented RPMI media and αvβ3 integrin for 2 hours; 633 nm laser excitation; both purified
[3] = biological target: T2, αvβ3 integrin on the membrane of SW620 human metastatic colon cancer cells (human (endogenous in SW620)) (UniProt P06756+P05106); experiment: surface enhanced Raman scattering (SERS) mapping of cells; Au-RGDFC nanostars added to SW620 cells in the culture dish for 2 hours, cells fixed, mapped with 1 um step, 633 nm; DCLS against the MCR spectrum of purified αvβ3 integrin; bare Au nanostars as control; only the binder purified
[4] = biological target: T2, αvβ3 integrin on the membrane of SW620 human metastatic colon cancer cells (human (endogenous in SW620)); experiment: surface enhanced Raman scattering (SERS) mapping of cells; receptor blocking: SW620 cells incubated with a high concentration of linear RGD peptide for 2 hours, then Au-RGDFC nanostars for 2 hours, washed, fixed, mapped at 633 nm; unblocked cells as control; only the binder purified

Row | Molecule | binding (cyclic RGDFC peptide [1]) | binding (cyclic RGDFC peptide [2]) | binding [3] | binding [4]
1 | purified αvβ3 integrin (from UniProt P06756 31-1048; P05106 27-788) (complex) | binds | binds | – | –
2 | B1 | – | – | binds | binds
